Common to all, as to format: cell-based
Common to all, as to details: rank among eight compounds, one = lowest IC50

One data set relates to P388D1 (mouse, lymphoma). The data set is described as follows: Cell growth inhibition assay, P388D1. The procedure: (§1) In this study, compounds 1-8 were screened in vitro against a panel of four mouse lymphoma cell lines and two human lymphoma cell line for cell growth inhibition activity. Following treatment, half maximal inhibitory concentrations (IC50) were determined with the objective of selecting the most efficacious compounds for evaluation of in vitro absorption, distribution, metabolism, and excretion (ADME) screening.
(§2) Similarly, human Burkitt's lymphoma Ramos cells (ATCC CRL-1596) were grown in suspension in Roswell Park Memorial Institute (RPMI) 1640 medium supplemented with 10% fetal bovine serum (FBS), 10 mM HEPES KOH pH 7.4, and 2 mM sodium pyruvate. Mouse P388D1 (ATCC CCL-46) and WR19L (ATCC TIB-52) cells were grown in suspension in Dulbecco's Modified Eagle Medium (DMEM) with 10% fetal bovine serum (FBS), 10 mM HEPES, and 2 mM sodium pyruvate. Mouse WEHI231 (ATCC CRL-1702) and EL4 (ATCC TIB-39) cells were grown in suspension in DMEM with 10% fetal bovine serum (FBS), 10 mM HEPES KOH pH 7.4, 2 mM sodium pyruvate, and 0.05 mM β-mercaptoethanol. All cells were maintained at 37° C. in an atmosphere of 5% CO2 in air. Logarithmically growing cells were routinely sub-cultured twice weekly. Briefly, cells were collected by centrifugation, resuspended in pre-warmed media, and diluted 1:10 into a 75 cm^2 flask.
(§3) Cells were subcultured and 4×10^3 cells (in 50 μL) were transferred to each well in a Falcon 96-well tissue culture plate. Exemplary compounds were dissolved in pure dimethyl sulphoxide (DMSO) at a concentration of 10 mM. From this 10 mM stock solution, 12 successive serial dilutions were made in DMSO (2.5 fold dilutions), ranging from 0.52 μM to 10 mM. Using these stock dilutions, 5 μL of each were added to 500 μL of media, and 50 μL of this was added to the cells. The final concentrations being tested ranged from 0.0026 μM to 50 μM. Each concentration was tested in triplicate, and DMSO and untreated cells were also included as controls. After five days of incubation with the compounds, cell viability was determined using the XTT cell proliferation kit (Roche, Cat. No. 11 465 015 001). Following the XTT protocol, 4.5-24 hours after addition of the reagent, the plates were read in a μQuant 96-well plate spectrophotometer (Biotek Instruments Inc.) and the results analyzed to determine the IC50.

Data set [1] relates to Human Burkitt's lymphoma Raji cells. The data set is described as follows: Cell growth inhibition assay, Raji. The method, then: as §1
Human Burkitt's lymphoma Raji cells (ATCC CCL-86) were grown in suspension in Roswell Park Memorial Institute (RPMI) 1640 medium supplemented with 10% fetal bovine serum (FBS), 10 mM HEPES KOH pH 7.4, and 2 mM sodium pyruvate at 37° C. in an atmosphere of 5% CO2 in air. Logarithmically growing cells were routinely sub-cultured twice weekly. Briefly, cells were collected by centrifugation, resuspended in pre-warmed media, and diluted 1:10 into a 75 cm^2 flask.
as §3

A further data set relates to WR19L (mouse, lymphoma). The data set is described as follows: Cell growth inhibition assay, WR19L. The procedure: as §1, §2, §3
The test system of a further data set is EL4 (mouse, lymphoma). Description: Cell growth inhibition assay, EL4. The method, then: as §1, §2, §3
The subject of data set [2] is human Burkitt's lymphoma Ramos cells. The data set is described as follows: Cell growth inhibition assay, Ramos. The method, then:
as §1, §2, §3

The test system of data set [3] is WEHI 231 (mouse, B-cell lymphoma). The data set is described as follows: Cell growth inhibition assay, WEHI231. The method, then: as §1, §2, §3

In the case of `FC1(F)Oc2ccc(-c3nc4c5cccnc5c5ncccc5c4[nH]3)cc2O1` [Compound 8], in the data set with P388D1 (mouse, lymphoma), the “Ranking of efficacy, P388D1 (ms)” value stood at 2. The “Ranking of efficacy, Raji (hs)” value in data set [1] came out at 1. In addition, in the data set on WR19L (mouse, lymphoma), the “Ranking of efficacy, WR19L (ms)” value was found to be 2. For the same compound, the “Ranking of efficacy, EL4 (ms)” value with EL4 (mouse, lymphoma) was 2. Also, in data set [2], the “Ranking of efficacy, Ramos (hs)” value is 2. Also, the “Ranking of efficacy, WEHI231 (ms)” value in data set [3] was 1.
With `FC1(F)Oc2ccc(-c3nc4c5cccnc5c5ncccc5c4[nH]3)cc2O1` [Compound 5], the “Ranking of efficacy, P388D1 (ms)” value with P388D1 (mouse, lymphoma) was 8. In addition, in data set [1], the “Ranking of efficacy, Raji (hs)” value turned out to be 4. The “Ranking of efficacy, WR19L (ms)” value in the data set with WR19L (mouse, lymphoma) stood at 4. For the same compound, in the data set with EL4 (mouse, lymphoma), the “Ranking of efficacy, EL4 (ms)” value is listed as 8. Also, the “Ranking of efficacy, Ramos (hs)” value in data set [2] was 4. Besides, the “Ranking of efficacy, WEHI231 (ms)” value in data set [3] is recorded as 7.
In the case of `FC1(F)Oc2ccc(-c3nc4c5cccnc5c5ncccc5c4[nH]3)cc2O1` [Compound 3], in the data set on P388D1 (mouse, lymphoma), the “Ranking of efficacy, P388D1 (ms)” value turned out to be 6. Further, the “Ranking of efficacy, Raji (hs)” value in data set [1] is 8. Further, in the data set with WR19L (mouse, lymphoma), the “Ranking of efficacy, WR19L (ms)” value worked out at 7. The “Ranking of efficacy, EL4 (ms)” value in the data set with EL4 (mouse, lymphoma) turned out to be 4. In data set [2], the “Ranking of efficacy, Ramos (hs)” value was determined as 6. Further, the “Ranking of efficacy, WEHI231 (ms)” value in data set [3] was 2.
On to `FC1(F)Oc2ccc(-c3nc4c5cccnc5c5ncccc5c4[nH]3)cc2O1` [Compound 6], for which, in the data set with P388D1 (mouse, lymphoma), the “Ranking of efficacy, P388D1 (ms)” value was 1. Besides, the “Ranking of efficacy, Raji (hs)” value in data set [1] worked out at 2. For the same compound, the “Ranking of efficacy, WR19L (ms)” value with WR19L (mouse, lymphoma) came out at 1. The “Ranking of efficacy, EL4 (ms)” value in the data set on EL4 (mouse, lymphoma) is on record as 1. The “Ranking of efficacy, Ramos (hs)” value in data set [2] is on record as 1. Further, the “Ranking of efficacy, WEHI231 (ms)” value in data set [3] is 2.
Turning to `FC1(F)Oc2ccc(-c3nc4c5cccnc5c5ncccc5c4[nH]3)cc2O1` [Compound 4], in the data set on P388D1 (mouse, lymphoma), the “Ranking of efficacy, P388D1 (ms)” value amounted to 4. Also, in data set [1], the “Ranking of efficacy, Raji (hs)” value is given as 3. Further, in the data set with WR19L (mouse, lymphoma), the “Ranking of efficacy, WR19L (ms)” value is 3. Also, in the data set on EL4 (mouse, lymphoma), the “Ranking of efficacy, EL4 (ms)” value was determined as 7. Also, in data set [2], the “Ranking of efficacy, Ramos (hs)” value was 3. Also, in data set [3], the “Ranking of efficacy, WEHI231 (ms)” value is 5.
In the case of `FC1(F)Oc2ccc(-c3nc4c5cccnc5c5ncccc5c4[nH]3)cc2O1` [Compound 1], in the data set with P388D1 (mouse, lymphoma), the “Ranking of efficacy, P388D1 (ms)” value is 5. Further, the “Ranking of efficacy, Raji (hs)” value in data set [1] was 6. Further, the “Ranking of efficacy, WR19L (ms)” value in the data set with WR19L (mouse, lymphoma) is reported as 8. Besides, the “Ranking of efficacy, EL4 (ms)” value with EL4 (mouse, lymphoma) turned out to be 6. Moreover, in data set [2], the “Ranking of efficacy, Ramos (hs)” value stood at 8. Besides, the “Ranking of efficacy, WEHI231 (ms)” value in data set [3] was 4.
In the case of `FC1(F)Oc2ccc(-c3nc4c5cccnc5c5ncccc5c4[nH]3)cc2O1` [Compound 7], in the data set with P388D1 (mouse, lymphoma), the “Ranking of efficacy, P388D1 (ms)” value was found to be 3. The “Ranking of efficacy, Raji (hs)” value in data set [1] was found to be 5. Further, the “Ranking of efficacy, WR19L (ms)” value with WR19L (mouse, lymphoma) worked out at 5. Besides, in the data set with EL4 (mouse, lymphoma), the “Ranking of efficacy, EL4 (ms)” value came out at 5. In addition, the “Ranking of efficacy, Ramos (hs)” value in data set [2] was found to be 5. Also, in data set [3], the “Ranking of efficacy, WEHI231 (ms)” value came out at 6.
Regarding `FC1(F)Oc2ccc(-c3nc4c5cccnc5c5ncccc5c4[nH]3)cc2O1` [Compound 2], the “Ranking of efficacy, P388D1 (ms)” value in the data set with P388D1 (mouse, lymphoma) is 7. In addition, in data set [1], the “Ranking of efficacy, Raji (hs)” value worked out at 7. Further, the “Ranking of efficacy, WR19L (ms)” value in the data set on WR19L (mouse, lymphoma) is listed as 6. Moreover, in the data set on EL4 (mouse, lymphoma), the “Ranking of efficacy, EL4 (ms)” value stood at 3. Further, in data set [2], the “Ranking of efficacy, Ramos (hs)” value turned out to be 7. The “Ranking of efficacy, WEHI231 (ms)” value in data set [3] amounted to 3.
